Experimental data taken from patent US7880002B2, “Substituted piperazinyl-pyrrolidine compounds useful as chemokine receptor antagonists” (Millennium Pharmaceuticals, Inc., priority 2004, dated 2011).
Some of these results come from one statement about several compounds together.

Biological target: T1, CCR1 (Homo sapiens, UniProt P32246)
T1 construct: a monocytic derived cell line that endogenously expresses CCR1; host or cells: THP-1 cells
T1 sequence (P32246 1-355): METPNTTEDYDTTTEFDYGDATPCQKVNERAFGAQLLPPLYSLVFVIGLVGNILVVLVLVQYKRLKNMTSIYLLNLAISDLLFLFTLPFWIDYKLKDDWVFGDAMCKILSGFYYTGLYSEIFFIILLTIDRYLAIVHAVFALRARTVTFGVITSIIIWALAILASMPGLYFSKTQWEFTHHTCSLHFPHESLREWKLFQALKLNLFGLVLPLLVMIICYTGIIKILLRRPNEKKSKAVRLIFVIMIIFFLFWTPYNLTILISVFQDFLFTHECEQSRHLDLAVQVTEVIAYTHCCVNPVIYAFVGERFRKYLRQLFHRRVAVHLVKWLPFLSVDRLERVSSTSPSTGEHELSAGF
Test: CCR1 inhibition (THP-1 FLIPR assay / THP-1 whole cell radioligand binding assay; the patent does not say which gave the values)
Type: cell-based
Details: threshold list, less than 1 uM; compounds of Table 1; read-out: inhibitory activity
Description: The primary screening assay is a FLIPR® (Fluorometric Imaging Plate Reader, available from Molecular Devices Corporation, Sunnyvale, Calif.) assay using THP-1 cells (ATCC, Catalog No. TIB 202), a monocytic derived cell line that endogenously expresses CCR1.
The cells were resuspended at 1×10^6 cells/ml in dye loading media (growth media (RPMI+10% FBS (Fetal Bovine serum)+5.5×10^−5M 2-mercaptoethanol)+10 mM HEPES (N-2-hydroxyethylpiperazine-N′-2-ethane-sulfonic acid)+2.5 mM probenecid+fluo-3 (1:250)). The cells were incubated for 1 hour at 37° C. and then washed in FLIPR wash buffer (100 mL 10× HBSS (Hanks Buffered Saline Solution) (w/Ca++/Mg++)+20 mL 1M HEPES+1 g BSA+10 mL 250 mM probenecid+water (to make 1 L)) and plated at 50,000 cells/well in black/clear 384 well plates. The plates were transferred to FLIPR where the ability of different concentrations of compounds to inhibit RANTES induced calcium flux was assessed. Inhibition of the CCR1 response was reflected by a decrease of the fluorescence signal relative to the positive controls (RANTES alone).
THP-1 Whole Cell Radioligand Binding Assay
The cells were washed with PBS (phosphate buffered saline) and resuspended in binding buffer (10 mM HEPES pH 7.2, 1× HBSS (w/Ca^2+, Mg^2+) 0.5% BSA, 0.02% Na-azide) at 4×10^6 cells/ml (for 200, 000 cells/well). Cells were incubated with 0.1 to 0.2 nM [^125I]-labeled MIP-1α with or without unlabeled competitor (MIP-1α) or various concentrations of compounds for 60 minutes at room temperature. The assay was terminated by vacuum filtration through glass fiber filters (GF/B, Packard) which were presoaked in 0.3% polyethyleneimine. The filters were washed with wash buffer (10 mM HEPES, pH 7.2, 1 mM CaCl2, 5 mM MgCl2 0.5M NaCl), dried and the amount of bound radioactivity was determined by scintillation counting.

Compound	IC50 [nM]
O=C(c1ccc(Cl)cc1)N1CCN([C@@H]2CN(c3nc(C(F)(F)F)nc4cnccc34)C[C@H]2O)CC1 (racemic) [Example 137, 4-[4-(4-chlorobenzoyl)piperazin-1-yl]-1-[2-(trifluoromethyl)pyrido[3,4-d]pyrimidin-4-yl]pyrrolidin-3-ol]	< 1000
O=C(c1ccc(Cl)cc1)N1CCN([C@@H]2CN(c3ncnc4cc(Cl)cnc34)C[C@H]2O)CC1 (racemic) [Example 162, 4-[4-(4-chlorobenzoyl)piperazin-1-yl]-1-(7-chloropyrido[3,2-d]pyrimidin-4-yl)pyrrolidin-3-ol]	< 1000
O=C(c1ccc(Cl)cc1)N1CCN([C@H]2CN(c3ncnc4cnccc34)C[C@@H]2O)CC1 (racemic) [Example 182, 4-[4-(4-chlorobenzoyl)piperazin-1-yl]-1-pyrido[3,4-d]pyrimidin-4-ylpyrrolidin-3-ol]	< 1000
COc1cc2c(N3C[C@H](O)[C@@H](N4CCN(C(=O)c5ccc(Cl)cc5)CC4)C3)nc(C(F)(F)F)nc2cn1 (racemic) [Example 183, 4-[4-(4-chlorobenzoyl)piperazin-1-yl]-1-[6-methoxy-2-(trifluoromethyl)pyrido[3,4-d]pyrimidin-4-yl]pyrrolidin-3-ol]	< 1000
COc1ccc2nc(C(F)(F)F)nc(N3C[C@@H](O)[C@H](N4CCN(C(=O)c5ccc(Cl)cc5)CC4)C3)c2n1 (racemic) [Example 200, 4-[4-(4-chlorobenzoyl)piperazin-1-yl]-1-[6-methoxy-2-(trifluoromethyl)pyrido[3,2-d]pyrimidin-4-yl]pyrrolidin-3-ol]	< 1000
O=C(c1ccc(Cl)cc1)N1CCN([C@@H]2CN(c3ccnc4cc(Cl)ccc34)C[C@H]2O)CC1 (stereo in doubt) [Example 1, 4-[4-(4-chlorobenzoyl)piperazin-1-yl]-1-(7-chloroquinolin-4-yl)pyrrolidin-3-ol]	< 1000
O[C@@H]1CN(c2ccnc3cc(Cl)ccc23)C[C@H]1N1CCN(Cc2ccc(Cl)cc2)CC1 (stereo in doubt) [Example 2, 4-[4-(4-chlorobenzyl)piperazin-1-yl]-1-(7-chloroquinolin-4-yl)pyrrolidin-3-ol]	< 1000
O=C(c1ccc(Cl)cc1)N1CCN([C@@H]2CN(c3nccc(C(F)(F)F)n3)C[C@H]2O)CC1 (stereo in doubt) [Example 3, 4-[4-(4-chlorobenzoyl)piperazin-1-yl]-1-[4-(trifluoromethyl)pyrimidin-2-yl]pyrrolidin-3-ol]	< 1000
O[C@@H]1CN(c2nccc(C(F)(F)F)n2)C[C@H]1N1CCN(Cc2ccc(Cl)cc2)CC1 (stereo in doubt) [Example 4, 4-[4-(4-chlorobenzyl)piperazin-1-yl]-1-[4-(trifluoromethyl)pyrimidin-2-yl]pyrrolidin-3-ol]	< 1000
O=C(c1ccc(Cl)cc1)N1CCN([C@@H]2CN(c3ccc(Cl)cc3)C[C@H]2O)CC1 (stereo in doubt) [Example 5, 4-[4-(4-chlorobenzoyl)piperazin-1-yl]-1-(4-chlorophenyl)pyrrolidin-3-ol]	< 1000
O[C@@H]1CN(c2ccc(Cl)cc2)C[C@H]1N1CCN(Cc2ccc(Cl)cc2)CC1 (stereo in doubt) [Example 6, 4-[4-(4-chlorobenzyl)piperazin-1-yl]-1-(4-chlorophenyl)pyrrolidin-3-ol]	< 1000
O=C(c1ccc(Cl)cc1)N1CCN([C@@H]2CN(c3ncc(Br)cn3)C[C@H]2O)CC1 (stereo in doubt) [Example 8, 1-(5-bromopyrimidin-2-yl)-4-[4-(4-chlorobenzoyl)piperazin-1-yl]pyrrolidin-3-ol]	< 1000
O[C@@H]1CN(c2ncc(Br)cn2)C[C@H]1N1CCN(Cc2ccc(Cl)cc2)CC1 (stereo in doubt) [Example 9, 1-(5-bromopyrimidin-2-yl)-4-[4-(4-chlorobenzyl)piperazin-1-yl]pyrrolidin-3-ol]	< 1000
COC(=O)c1cnc(N2C[C@@H](O)[C@H](N3CCN(C(=O)c4ccc(Cl)cc4)CC3)C2)nc1C(F)(F)F (stereo in doubt) [Example 10, methyl 2-{3-[4-(4-chlorobenzoyl)piperazin-1-yl]4-hydroxypyrrolidin-1-yl}-4-(trifluoromethyl)pyrimidine-5-carboxylate]	< 1000
COC(=O)c1cnc(N2C[C@@H](O)[C@H](N3CCN(Cc4ccc(Cl)cc4)CC3)C2)nc1C(F)(F)F (stereo in doubt) [Example 11, methyl 2-{3-[4-(4-chlorobenzyl)piperazin-1-yl]-4-hydroxypyrrolidin-1-yl}-4-(trifluoromethyl)pyrimidine-5-carboxylate]	< 1000
O=C(c1ccc(Cl)cc1)N1CCN([C@@H]2CN(c3ccnc4c(C(F)(F)F)cccc34)C[C@H]2O)CC1 (stereo in doubt) [Example 13, 4-[4-(4-chlorobenzoyl)piperazin-1-yl]-1-[8-(trifluoromethyl)quinolin-4-yl]pyrrolidin-3-ol]	< 1000
O=C(c1ccc(Cl)cc1)N1CCN([C@@H]2CN(c3ncc(Cl)cc3Cl)C[C@H]2O)CC1 (stereo in doubt) [Example 22, 4-[4-(4-chlorobenzoyl)piperazin-1-yl]-1-(3,5-dichloropyridin-2-yl)pyrrolidin-3-ol]	< 1000
O=C(c1ccc(Cl)cc1)N1CCN([C@@H]2CN(c3ncnc4cc(Cl)ccc34)C[C@H]2O)CC1 (stereo in doubt) [Example 23, 4-[4-(4-chlorobenzoyl)piperazin-1-yl]-1-(7-chloroquinazolin-4-yl)pyrrolidin-3-ol]	< 1000
O=C(c1ccc(Cl)cc1)N1CCN([C@H]2CN(c3ncc(C(F)(F)F)cc3Cl)C[C@@H]2O)CC1 (stereo in doubt) [Example 24, 4-[4-(4-chlorobenzoyl)piperazin-1-yl]-1-[3-chloro-5-(trifluoromethyl)pyridin-2-yl]pyrrolidin-3-ol]	< 1000
CCOC(=O)c1cccnc1N1C[C@H](O)[C@@H](N2CCN(C(=O)c3ccc(Cl)cc3)CC2)C1 (stereo in doubt) [Example 25, ethyl 2-{3-[4-(4-chlorobenzoyl)piperazin-1-yl]-4-hydroxypyrrolidin-1-yl}nicotinate]	< 1000
O=C(c1ccc(Cl)cc1)N1CCN([C@H]2CN(c3cc(C(F)(F)F)nc4c(C(F)(F)F)cccc34)C[C@@H]2O)CC1 (stereo in doubt) [Example 26, 1-[2,8-bis(trifluoromethyl)quinolin-4-yl]-4-[4-(4-chlorobenzoyl)piperazin-1-yl]pyrrolidin-3-ol]	< 1000
O=C(c1ccc(Cl)cc1)N1CCN([C@@H]2CN(c3nccc(Nc4ccc(Cl)cc4)n3)C[C@H]2O)CC1 (stereo in doubt) [Example 41, 4-[4-(4-chlorobenzoyl)piperazin-1-yl]-1-{4-[(4-chlorophenyl)amino]pyrimidin-2-yl}pyrrolidin-3-ol]	< 1000
O[C@@H]1CN(c2nccc(Nc3ccc(Cl)cc3)n2)C[C@H]1N1CCN(Cc2ccc(Cl)cc2)CC1 (stereo in doubt) [Example 42, 4-[4-(4-chlorobenzyl)piperazin-1-yl]-1-{4-[(4-chlorophenyl)amino]pyrimidin-2-yl}pyrrolidin-3-ol]	< 1000
NC(=O)Nc1cc(Cl)ccc1N1C[C@@H](O)[C@H](N2CCN(C(=O)c3ccc(Cl)cc3)CC2)C1 (stereo in doubt) [Example 45, N-(5-chloro-2-{3-[4-(4-chlorobenzoyl)piperazin-1-yl]-4-hydroxypyrrolidin-1-yl}phenyl)urea]	< 1000
